PubChem BioAssay AID1053208 – Peter MacCallum Cancer Centre – 2014
The deposit covers about 17,000 reagents; shown is a random part of them. 788 of all reagents (4.7%) count as active. 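Calls rest on z-score classes alone; an extra cut-off of viability at most 70% of control was not applied to them.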 A number with no mark means an inactive call. Not all columns of the deposit are shown.

Purpose: 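Synthetic lethal interactions between gene loss and doxorubicin in osteosarcoma cells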 (primary screen)
Cells: mouse osteosarcoma cells, early-passage culture from an engineered mouse model of fibroblastic bone tumour
Reagents: siRNA pool against mouse genes, 40 nM
Timing: about 120 h (48 h before drug, then 72 h with drug)
Treatment: doxorubicin 100 nM for 72 h, roughly 30-40% inhibitory dose
Read-out: 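Luminescent ATP signal taken as viability with or without 100 nM doxorubicin for 72 h; mean of two wells set against non-targeting siRNA and turned into robust z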
Scale: viability z-score with doxorubicin: higher = more viable cells under doxorubicin; viability z-score without drug: higher = more viable cells with knock-down alone
Rule for the call: 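Called active if knock-down leaves viability unchanged without drug (z within -2 to 2) but lowers it with doxorubicin (z at or under -2)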

With knock-down of Scand1, the screen gave combined z-score class high cell count without drug only; viability z-score with doxorubicin 0; viability z-score without drug 2.02.
Maged2 gave combined z-score class no change with or without drug; viability z-score with doxorubicin -0.45; viability z-score without drug -1.52.
With knock-down of Apof, the record shows combined z-score class no change with or without drug; viability z-score with doxorubicin 1.8; viability z-score without drug 0.
Depletion of Slc35b3 resulted in: combined z-score class low cell count with and without drug; viability z-score with doxorubicin -3.6; viability z-score without drug -2.36.
Silencing of Midn gave: combined z-score class no change with or without drug; viability z-score with doxorubicin 1.12; viability z-score without drug 1.85.
Silencing of Cntn6 gave: combined z-score class no change with or without drug; viability z-score with doxorubicin -0.67; viability z-score without drug 0.34.
Against Wnk2, the entry reads combined z-score class no change with or without drug; viability z-score with doxorubicin 0.67; viability z-score without drug 0.34.
D430041D05Rik gave combined z-score class no change with or without drug; viability z-score with doxorubicin 0.22; viability z-score without drug -0.34.
Against G6pc3, the entry reads combined z-score class no change with or without drug; viability z-score with doxorubicin -0.22; viability z-score without drug -0.51.
For Hes6 the deposit lists combined z-score class no change with or without drug; viability z-score with doxorubicin 0.34; viability z-score without drug -1.18.
Depletion of Or4a2 came out at: combined z-score class no change with or without drug; viability z-score with doxorubicin -0.45; viability z-score without drug -1.01.
With knock-down of Pomp, the screen gave combined z-score class low cell count without drug only; viability z-score with doxorubicin -1.12; viability z-score without drug -2.53.
Silencing of Adam12 resulted in: combined z-score class high cell count without drug only; viability z-score with doxorubicin 0.45; viability z-score without drug 2.36.
Silencing of Usp17lc came out at: combined z-score class no change with or without drug; viability z-score with doxorubicin 0.22; viability z-score without drug 0.51.
Against Ccm2l, the values are combined z-score class no change with or without drug; viability z-score with doxorubicin 0.22; viability z-score without drug -0.17.
After knock-down of Exo1, the screen gave combined z-score class no change with or without drug; viability z-score with doxorubicin 0.67; viability z-score without drug 1.85.
Ywhaq scored combined z-score class no change with or without drug; viability z-score with doxorubicin -0.9; viability z-score without drug 0.51.
Pcdhb2 scored combined z-score class no change with or without drug; viability z-score with doxorubicin 1.12; viability z-score without drug 0.67.
Knock-down of Nectin1 gave: combined z-score class no change with or without drug; viability z-score with doxorubicin -0.45; viability z-score without drug -1.18.
Depletion of Gripap1 gave: combined z-score class no change with or without drug; viability z-score with doxorubicin 1.91; viability z-score without drug 1.52.
After knock-down of Kmt5b the results were combined z-score class no change with or without drug; viability z-score with doxorubicin -0.45; viability z-score without drug 0.17.
Trim35 showed combined z-score class high cell count without drug only; viability z-score with doxorubicin 1.35; viability z-score without drug 3.04.
Inhba scored combined z-score class no change with or without drug; viability z-score with doxorubicin 0.67; viability z-score without drug 0.67.
After knock-down of Or4k2 the results were combined z-score class no change with or without drug; viability z-score with doxorubicin 0.45; viability z-score without drug -0.17.
After knock-down of Lman1l the results were combined z-score class no change with or without drug; viability z-score with doxorubicin 0.22; viability z-score without drug -0.17.
With knock-down of Herc2, the record shows combined z-score class no change with or without drug; viability z-score with doxorubicin -0.22; viability z-score without drug -0.34.
Knock-down of Rnf208 gave: combined z-score class no change with or without drug; viability z-score with doxorubicin 1.35; viability z-score without drug 1.85.
Knock-down of Nck1 gave: combined z-score class no change with or without drug; viability z-score with doxorubicin 0.67; viability z-score without drug 1.01.

A stretch from the list above, as a working copy:
Inhba → combined z-score class: no change with or without drug; viability z-score with doxorubicin: 0.67; viability z-score without drug: 0.67
Or4k2 → combined z-score class: no change with or without drug; viability z-score with doxorubicin: 0.45; viability z-score without drug: -0.17
Lman1l → combined z-score class: no change with or without drug; viability z-score with doxorubicin: 0.22; viability z-score without drug: -0.17
